Measured values taken from patent US20230047208A1, “RNA Splicing Modulation” (The General Hospital Corporation, priority 2020, published 2023).
This continues a long series; more values of the same kind are listed elsewhere.

Test system: wildtype (WT) human fibroblast cell lines
Assay: Transcriptome-wide splicing by RNA sequencing (RNASeq), exon triplet PSI change;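 as to Effect: six WT fibroblast lines treated seven days versus DMSO vehicle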;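 as to T-PSI: T-PSI is average treated PSI after seven days of treatment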
Format: cell-based
Design: key to Effect: Exclusion; Inclusion; Unchanged
Source text: FIG. 2A provides a representation of an exon triplet. Exon U is upstream of Exon X, which is upstream of Exon D. R1, R2 and R3 represent RNA sequencing (RNASeq) reads spanning the regions between two adjacent exons. UI1, I1X, XI2 and I2D are four regions flanking the four splice sites of the exon-triplet. Each flanking region consists of 25 exonic base pairs and 75 intronic base pairs.
FIG. 2B provides a volcano plot showing the ψ (PSI: Percent Spliced-In) changes in splicing after treatment with Compound (I). Each dot represents one of the 161,097 expressed exon triplets in human fibroblasts. The x axis represents the ψ changes after treatment and the y axis represents the False Discovery Rate (FDR) (log 10 transformed). […] The horizontal dashed line indicates an FDR of 0.1. The dots on the right side of the right vertical dashed line and above the horizontal dashed line represent the exon-triplets with an increase for Exon X inclusion (Δψ≥0.1 and FDR<0.1) while the dots on left side of the left vertical dashed line and above the horizontal dashed line represent an increase for Exon X exclusion (Δψ≤−0.1 and FDR<0.1). Black dots in-between the two vertical dashed lines represent exon-triplets unchanged from the treatment.
In some aspects, analysis is performed on data derived from the assay to measure the magnitude of splicing to determine the amount of exons spliced into an mRNA transcript that is produced in the presence of Compound (I) relative to the amount in the absence of Compound (I) or presence of a negative control. In a preferred aspect, the method utilized is calculation of change in Percent Spliced In (ΔPSI). […] The ΔPSI value is derived from the formula: […]
The values for “a” and “b” represent the number of reads supporting the probability for potential inclusion or exclusion of an exon in an RNA transcript. The “a” value is derived from the number of reads within an exon triplet covering, in 5′ to 3′ order: the last few bases (>1 nucleotide) of an upstream exon operably linked to the first few bases (>1 nucleotide) of a middle exon. The “b” value is derived from the number of reads within an exon triplet covering, in 5′ to 3′ order: the last few bases (>1 nucleotide) of the middle exon operably linked to the first few bases (>1 nucleotide) of a downstream exon. The number of reads will indicate whether the splice junction of a middle exon has been identified as potentially having a CNN Motif(s) by the CNN Model described herein, wherein the inclusion or exclusion of the middle exon may be modulated in the presence of Compound (I) to produce one or more mature RNA isoforms from the gene transcript. The value for “c” represents the number of reads supporting the exclusion of the middle exon.
The effect on splicing modulation and corresponding splice differences toward exon inclusion or exclusion was determined by counting the RNASeq reads covering two splice junctions of exon triplets (three consecutive exons: Exon U, Exon X, Exon D) and the corresponding intervening introns, then comparing the change in Percent Spliced In (ΔPSI or Δψ) of the middle exon (Exon X) after treatment (as shown in FIG. 2A)^52,53. 934 exon triplets were identified showing differential middle exon inclusion or exclusion in response to Compound (I) treatment. Of these, 254 were exon inclusion events (Δψ≥0.1 and FDR<0.1) and 680 were exon exclusion events (Δψ≤−0.1 and FDR<0.1) (as shown in FIG. 2B). […] The splicing results were evaluated by RT-PCR in independent replicate experiments, confirming all the calculated Δψ values. […]

[1] = PLA2G12A Exon 110639839-110639915
[2] = PLA2G12A Exon 110639845-110639915
[3] = PLA2R1 Exon 160833196-160833231
[4] = PLAGL1 Exon 144287295-144287335
[5] = PLAGL1 Exon 144287295-144287349
[6] = PLAGL1 Exon 144287295-144287367
[7] = PLAGL1 Exon 144306272-144306311
[8] = PLSCR4 Exon 145968344-145968424
[9] = PNPLA8 Exon 108161920-108161965
[10] = POLR3GL Exon 145457935-145458003
[11] = RWDD1 Exon 116895221-116895334, seven days
[12] = RWDD2B Exon 30380561-30380628, seven days
[13] = RWDD4 Exon 184572371-184572476, seven days
[14] = RWDD4 Exon 184572371-184572480, seven days
[15] = SBF1 Exon 50895463-50895540, seven days
[16] = SCMH1 Exon 41625397-41625605, seven days
[17] = SCRN3 Exon 175262064-175262132, seven days
[18] = SDCCAG8 Exon 243456701-243456796, seven days
[19] = SEC13 Exon 10360823-10360856, seven days
[20] = SEC31A Exon 83783687-83783725, seven days
[21] = SEC31A Exon 83819142-83819215, seven days
[22] = SEC31B Exon 102249765-102250079, seven days
[23] = SECISBP2L Exon 49311615-49311749, seven days
[24] = SEMA4F Exon 74884980-74885078, seven days
[25] = SENP1 Exon 48460710-48460748, seven days
[26] = SENP6 Exon 76332467-76332574, seven days
[27] = SENP6 Exon 76350400-76350420, seven days
[28] = SENP6 Exon 76350403-76350420, seven days
[29] = SERAC1 Exon 158576347-158576383, seven days
[30] = SETD2 Exon 47122406-47122573, seven days

## Clc1nc(NCc2ccncc2)c2cc[nH]c2n1 [Compound (I), 2-chloro-N-(pyridin-4-ylmethyl)-7H-pyrrolo[2,3-d]pyrimidin-4-amine]
PILRB Exon 99950833-99950893
  ΔPSI: −0.264
PIN1 Exon 9947499-9947551
  Effect: Inc
  T-PSI: 0.131
  ΔPSI: 0.107
PINX1 Exon 10677703-10677779
  Effect: Unc
  T-PSI: 0.736
  ΔPSI: 0.010
PKIG Exon 43211226-43211372
  Effect: Exc
  T-PSI: 0.417
  ΔPSI: −0.152
[1]
  Effect: Exc
  T-PSI: 0.669
  ΔPSI: −0.308
[2]
  Effect: Exc
  T-PSI: 0.460
  ΔPSI: −0.480
[3]
  Effect: Exc
  T-PSI: 0.831
  ΔPSI: −0.122
[4]
  Effect: Exc
  T-PSI: 0.713
  ΔPSI: −0.225
[5]
  Effect: Exc
  T-PSI: 0.657
  ΔPSI: −0.261
[6]
  Effect: Exc
  T-PSI: 0.637
  ΔPSI: −0.272
[7]
  Effect: Exc
  T-PSI: 0.047
  ΔPSI: −0.187
PLBD2 Exon 113822656-113822751
  Effect: Exc
  T-PSI: 0.840
  ΔPSI: −0.148
PLD3 Exon 40871460-40871837
  Effect: Unc
  T-PSI: 0.883
  ΔPSI: −0.007
PLD3 Exon 40871625-40871837
  Effect: Unc
  T-PSI: 0.790
  ΔPSI: −0.008
[8]
  Effect: Unc
  T-PSI: 0.691
  ΔPSI: −0.009
PMS2P3 Exon 75141633-75141745
  Effect: Exc
  T-PSI: 0.700
  ΔPSI: −0.232
[9]
  Effect: Inc
  T-PSI: 0.871
  ΔPSI: 0.170
PODNL1 Exon 14046793-14046857
  Effect: Exc
  T-PSI: 0.491
  ΔPSI: −0.154
[10]
  Effect: Exc
  T-PSI: 0.858
  ΔPSI: −0.118
[11]
  Effect: Inc
  T-PSI: 0.554
  ΔPSI: 0.263
[12]
  Effect: Exc
  T-PSI: 0.706
  ΔPSI: −0.147
[13]
  Effect: Exc
  T-PSI: 0.742
  ΔPSI: −0.221
[14]
  Effect: Exc
  T-PSI: 0.815
  ΔPSI: −0.162
[15]
  Effect: Exc
  T-PSI: 0.512
  ΔPSI: −0.156
[16]
  Effect: Exc
  T-PSI: 0.412
  ΔPSI: −0.180
[17]
  Effect: Unc
  T-PSI: 0.112
  ΔPSI: 0.005
[18]
  Effect: Inc
  T-PSI: 0.388
  ΔPSI: 0.234
[19]
  Effect: Unc
  T-PSI: 0.273
  ΔPSI: 0.005
[20]
  Effect: Unc
  T-PSI: 0.735
  ΔPSI: −0.003
[21]
  Effect: Unc
  T-PSI: 0.868
  ΔPSI: −0.004
[22]
  Effect: Exc
  T-PSI: 0.464
  ΔPSI: −0.319
[23]
  Effect: Exc
  T-PSI: 0.533
  ΔPSI: −0.201
[24]
  Effect: Exc
  T-PSI: 0.016
  ΔPSI: −0.286
[25]
  Effect: Exc
  T-PSI: 0.742
  ΔPSI: −0.218
[26]
  Effect: Exc
  T-PSI: 0.126
  ΔPSI: −0.101
[27]
  Effect: Exc
  T-PSI: 0.568
  ΔPSI: −0.140
[28]
  Effect: Exc
  T-PSI: 0.594
  ΔPSI: −0.123
[29]
  Effect: Exc
  T-PSI: 0.575
  ΔPSI: −0.208
[30]
  Effect: Unc
  T-PSI: 0.109
  ΔPSI: −0.002
SETD5 Exon 9476274-9476314, seven days
  Effect: Exc
